Literature values, collected in US20200315227A1, “Process for Preparing Concentrated Solutions of Steviol Glycosides and Mogrosides, and Uses” (The Coca-Cola Company, priority 2017, published 2020).
Some results were stated once for a whole list of compounds, not compound by compound.

Settings: standard room temperature, in water and low pH buffer

In the case of C=C1C[C@@]23CCC4[C@](C)(C(=O)OC5OC(CO)C(O)C(OC6CC(CO)C(O)C(O)C6O)C5OC5OC(CO)C(O)C(O)C5O)CCC[C@@]4(C)[C@@H]2CCC1(OC1OC(CO)C(O)C(OC2CC(CO)C(O)C(O)C2O)C1OC1OC(CO)C(O)C(O)C1O)C3 (stereo partly drawn) [Reb M, 13-[(2-O-β-D-glucopyranosyl-3-O-β-D-glucopyranosyl-β-D-glucopyranosyl)oxy] ent kaur-16-en-19-oic acid-[(2-O-β-D-glucopyranosyl-3-O-β-D-glucopyranosyl-β-D-glucopyranosyl) ester]], the solubility is listed as “less than 1,000 ppm”.
